The record followed here is article PMC12446771.

Amino acid sequences for entries named in this document (tags omitted).
UniProt O95622: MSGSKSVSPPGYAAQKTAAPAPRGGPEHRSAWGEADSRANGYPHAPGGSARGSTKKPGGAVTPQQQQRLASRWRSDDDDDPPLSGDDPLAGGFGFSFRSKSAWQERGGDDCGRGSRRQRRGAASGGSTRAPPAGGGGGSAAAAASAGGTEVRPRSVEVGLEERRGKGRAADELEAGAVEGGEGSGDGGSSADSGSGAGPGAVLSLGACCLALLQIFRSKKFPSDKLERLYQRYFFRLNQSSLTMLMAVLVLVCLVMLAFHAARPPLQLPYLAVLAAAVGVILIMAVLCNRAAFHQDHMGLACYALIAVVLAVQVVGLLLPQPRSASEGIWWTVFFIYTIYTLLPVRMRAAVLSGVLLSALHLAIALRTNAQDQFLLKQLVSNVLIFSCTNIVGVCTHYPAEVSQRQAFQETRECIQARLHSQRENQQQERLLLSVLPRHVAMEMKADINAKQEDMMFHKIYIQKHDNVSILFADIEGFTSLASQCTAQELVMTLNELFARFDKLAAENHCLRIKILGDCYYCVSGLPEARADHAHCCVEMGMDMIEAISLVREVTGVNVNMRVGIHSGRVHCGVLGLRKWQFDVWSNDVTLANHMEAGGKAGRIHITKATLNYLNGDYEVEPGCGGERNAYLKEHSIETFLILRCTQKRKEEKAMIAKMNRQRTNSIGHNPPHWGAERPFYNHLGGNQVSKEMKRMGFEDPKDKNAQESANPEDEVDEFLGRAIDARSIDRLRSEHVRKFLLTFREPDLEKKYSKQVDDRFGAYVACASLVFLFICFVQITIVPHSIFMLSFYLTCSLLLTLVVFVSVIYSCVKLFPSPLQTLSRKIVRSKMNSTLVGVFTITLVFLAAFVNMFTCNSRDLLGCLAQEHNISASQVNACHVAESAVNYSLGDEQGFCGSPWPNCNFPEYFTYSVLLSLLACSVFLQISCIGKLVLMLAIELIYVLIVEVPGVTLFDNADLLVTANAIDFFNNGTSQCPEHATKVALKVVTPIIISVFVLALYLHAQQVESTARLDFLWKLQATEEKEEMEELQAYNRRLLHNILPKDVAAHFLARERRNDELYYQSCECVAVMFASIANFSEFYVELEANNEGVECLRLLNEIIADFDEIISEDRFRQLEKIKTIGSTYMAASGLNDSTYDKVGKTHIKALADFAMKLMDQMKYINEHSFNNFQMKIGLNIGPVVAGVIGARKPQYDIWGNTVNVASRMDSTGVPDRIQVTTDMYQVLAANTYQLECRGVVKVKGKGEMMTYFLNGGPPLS
UniProt O43306: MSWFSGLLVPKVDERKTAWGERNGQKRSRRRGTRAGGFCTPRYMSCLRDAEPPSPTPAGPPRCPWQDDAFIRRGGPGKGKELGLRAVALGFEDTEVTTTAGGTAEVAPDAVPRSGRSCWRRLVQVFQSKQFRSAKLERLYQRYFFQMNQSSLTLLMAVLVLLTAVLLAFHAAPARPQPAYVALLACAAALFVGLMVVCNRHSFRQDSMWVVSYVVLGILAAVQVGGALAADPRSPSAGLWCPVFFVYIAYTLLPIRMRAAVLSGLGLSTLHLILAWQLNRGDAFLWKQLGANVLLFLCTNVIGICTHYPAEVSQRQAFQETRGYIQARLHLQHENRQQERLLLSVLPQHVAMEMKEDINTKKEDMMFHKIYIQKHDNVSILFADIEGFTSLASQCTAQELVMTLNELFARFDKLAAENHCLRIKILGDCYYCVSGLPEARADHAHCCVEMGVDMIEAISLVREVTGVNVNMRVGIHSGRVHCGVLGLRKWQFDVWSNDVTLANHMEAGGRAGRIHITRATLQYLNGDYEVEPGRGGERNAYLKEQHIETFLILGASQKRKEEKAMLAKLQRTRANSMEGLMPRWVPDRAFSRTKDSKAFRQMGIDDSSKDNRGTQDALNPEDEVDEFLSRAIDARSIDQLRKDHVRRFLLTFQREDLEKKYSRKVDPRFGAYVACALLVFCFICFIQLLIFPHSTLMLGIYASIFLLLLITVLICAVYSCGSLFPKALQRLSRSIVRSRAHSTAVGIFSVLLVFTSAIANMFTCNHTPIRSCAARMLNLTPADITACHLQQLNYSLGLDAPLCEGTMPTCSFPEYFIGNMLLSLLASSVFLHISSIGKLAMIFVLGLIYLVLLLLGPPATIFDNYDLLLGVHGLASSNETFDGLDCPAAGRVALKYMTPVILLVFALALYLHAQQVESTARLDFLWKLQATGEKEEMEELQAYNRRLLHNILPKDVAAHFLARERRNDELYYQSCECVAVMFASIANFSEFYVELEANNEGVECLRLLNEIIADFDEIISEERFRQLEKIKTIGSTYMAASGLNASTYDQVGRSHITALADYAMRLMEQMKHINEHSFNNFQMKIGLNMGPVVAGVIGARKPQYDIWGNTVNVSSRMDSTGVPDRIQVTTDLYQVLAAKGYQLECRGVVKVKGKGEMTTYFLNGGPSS

Results are given in words; binding and its absence hold for the method and conditions named. Binding seen in cells or lysates may run through a third protein. A yes stands for co-enrichment or nearness to the bait. Other partners may have been found. For some assays here: No binding means not detected with the bait. For some assays here: Where a sequence is shown, tags or fusion partners need not be part of it.

The target in test [1] is AC5-miniTurbo-FLAG fusion protein (human adenylyl cyclase 5) (human) (UniProt O95622). Kind of test: affinity purification with mass spectrometry; FLAG-MS: anti-FLAG M2 magnetic beads on lysates (0.1% NP-40, 100 mM KCl) of neonatal rat cardiomyocytes expressing AC-mT-FLAG, 2 to 3 h at 4 °C, SAINT against GFP-mT-FLAG.
For test [2] the target is unchanged. As to the kind of experiment: proximity labelling; BioID: AC-miniTurbo-FLAG baits virally expressed in primary neonatal rat cardiomyocytes, vehicle or 48 h norepinephrine, 50 μM biotin 3 h, RIPA lysis, streptavidin pull-down, LC-MS/MS, SAINT score ≥0.7 against GFP-mT and uninfected controls.
The target of test [3] is T1, AC9-miniTurbo-FLAG fusion protein (human adenylyl cyclase 9) (human) (UniProt O60503).
T1 sequence: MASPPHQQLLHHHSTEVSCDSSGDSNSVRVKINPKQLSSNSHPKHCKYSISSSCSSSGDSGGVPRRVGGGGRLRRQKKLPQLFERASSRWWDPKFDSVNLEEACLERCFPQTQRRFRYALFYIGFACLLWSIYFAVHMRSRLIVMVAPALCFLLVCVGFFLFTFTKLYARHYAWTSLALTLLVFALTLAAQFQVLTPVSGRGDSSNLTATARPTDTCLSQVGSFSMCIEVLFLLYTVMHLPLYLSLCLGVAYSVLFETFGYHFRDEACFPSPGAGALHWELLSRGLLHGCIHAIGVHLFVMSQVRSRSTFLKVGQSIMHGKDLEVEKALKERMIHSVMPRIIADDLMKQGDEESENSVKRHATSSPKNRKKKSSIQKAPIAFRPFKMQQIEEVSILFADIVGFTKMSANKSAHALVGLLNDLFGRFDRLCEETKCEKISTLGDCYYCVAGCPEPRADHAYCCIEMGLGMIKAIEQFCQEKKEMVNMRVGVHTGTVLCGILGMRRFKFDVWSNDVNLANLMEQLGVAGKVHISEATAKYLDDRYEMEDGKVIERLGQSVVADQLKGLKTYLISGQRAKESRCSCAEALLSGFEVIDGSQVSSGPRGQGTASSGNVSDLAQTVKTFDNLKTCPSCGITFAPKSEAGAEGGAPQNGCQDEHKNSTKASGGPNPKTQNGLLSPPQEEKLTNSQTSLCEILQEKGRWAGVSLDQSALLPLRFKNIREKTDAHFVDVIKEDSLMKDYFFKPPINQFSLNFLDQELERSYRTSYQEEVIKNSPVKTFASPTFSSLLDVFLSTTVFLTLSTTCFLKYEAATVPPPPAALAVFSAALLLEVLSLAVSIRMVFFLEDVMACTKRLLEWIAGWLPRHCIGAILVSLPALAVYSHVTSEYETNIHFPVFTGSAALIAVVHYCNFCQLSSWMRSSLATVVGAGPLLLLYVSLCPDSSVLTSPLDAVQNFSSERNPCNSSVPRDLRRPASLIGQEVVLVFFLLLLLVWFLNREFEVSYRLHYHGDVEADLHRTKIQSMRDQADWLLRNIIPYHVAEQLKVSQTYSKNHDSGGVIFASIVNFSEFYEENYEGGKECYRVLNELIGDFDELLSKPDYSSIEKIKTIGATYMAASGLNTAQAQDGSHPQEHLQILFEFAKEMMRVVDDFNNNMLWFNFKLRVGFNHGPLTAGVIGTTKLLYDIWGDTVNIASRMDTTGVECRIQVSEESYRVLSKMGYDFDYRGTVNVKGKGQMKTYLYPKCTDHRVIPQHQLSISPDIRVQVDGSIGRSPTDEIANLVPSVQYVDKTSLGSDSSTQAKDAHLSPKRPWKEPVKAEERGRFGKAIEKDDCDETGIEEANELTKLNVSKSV
Kind of test: proximity labelling + affinity purification with mass spectrometry; BioID and FLAG-MS of AC-mT-FLAG baits in neonatal rat cardiomyocytes; the sentence does not tell which of the two found the prey.

Test [4] concerns the target AC6-miniTurbo-FLAG fusion protein (human adenylyl cyclase 6) (human) (UniProt O43306). Described as above.

B1: phospholamban (PLN) (protein, UniProt P61016 1-52)
chain: MEKVQYLTRSAIRRASTIEMPQQARQNLQNLFINFCLILICLLLICIIVMLL
B1: the binding entry in test [1] was “binds”.

B2: junctophilin (JPH2) (protein, UniProt Q2PS20 1-692)
chain: MSGGRFDFDDGGAYCGGWEGGKAHGHGLCTGPKGQGEYSGSWNFGFEVAGVYTWPSGNTFEGYWSQGKRHGLGIETKGRWLYKGEWTHGFKGRYGIRQSTNSGAKYEGTWNNGLQDGYGTETYADGGTYQGQFTNGMRHGYGVRQSVPYGMAVVVRSPLRTSLSSLRSEHSNGTVAPDSPAADGPTLPLPPVPRGGFALSLLATAEAARPPGLFTRGALLGRLRRSESRTSLGSQRSRLSFLKSELSSGASDAASTGSLAEGAEGPDDAAAPFDADIDATTTETYMGEWKNDKRSGFGVSERSSGLRYEGEWLDNLRHGYGRTTLPDGHREEGKYRHNVLVKGTKRRVLPLKSNKVRQKVEHGVEGAQRAAAIARQKAEIAASRTSHAKAKAEAAEQAALAANQESNIARTLAKELAPDFYQPGPEYQKRRLLQEILENSESLLEPRERGPGTGLPERPRESPQLHERETPQPEGGPPSPAGTPPQPKRPRPGSSKDGLLSPGAWNGEPGGEGSRPATPSDGAGRRSPARPASEHMAIEALQPPPAPSREPEVALYRGYHSYAVRTGPPEPPPLEDEPEPEPEVPRSDSEPPSPVSATVQEEESPAPRSRVPAKPATLEPKPIVPKAEPKAKARKTEARGLSKAGAKKKGRKEVAQEAEAEVEVEEVPNTVLICMVILLNIGLAILFVHLLT
As for B2, the binding result in test [2], in test [3] and in test [4] was “binds” in each case.

B3: endogenous AC9 (enzyme, UniProt M0R5U4 1-1373)
chain: MASSPHQQLLHHHSTEVSCDSSGDSNSVRVKINPKQLSSNTHPKHCKYSISSSCSSSGDSGGLPRRVGGGGRLRRQKKLPQLFERASSRWWDPKFDSVNLEEACLERCFPQTQRRFRYALFYVGFACLLWSIYFAVHMRSKVIVMVVPALCFLVVCVGFFLFTFTKLYARHYAWTSLALTLLVFALTLAAQFQVWTPLSGRVDSPNHTLTAKAADTCLSQVGSFSMCIEVLFLLYTVMHLPLYLSLFLGVVYSVLFETFGYHFRNEDCFPSPDPGALHWELLSRALLHVCIHAIGIHLFVMSQVRSRSTFLKVGQSIMHGKDLEVEKALKERMIHSVMPRIIADDLMKQGDEESENSVKRHATSSPKNRKKKASIQKAPIAFRPFKMQQIEEVSILFADIVGFTKMSANKSAHALVGLLNDLFGRFDRLCEETKCEKISTLGDCYYCVAGCPEPRADHAYCCIEMGLGMIKAIEQFCQEKKEMVNMRVGVHTGTVLCGILGMRRFKFDVWSNDVNLANLMEQLGVAGKVHISEATAKYLDDRYEMEDGRVMERLGQSVVADQLKGLKTYLISGQRAKESHCSCAEALLSGFEVIDDSRVSSGPRGQGTASPGSVSDLAQTVKTFDNLKTCPSCGITFAPKSEAGAEGGAVQNGCQDEPKASTKVTSSWLLFLSVPLLAHPPKASGGPNSKTQNGLLSPPAEEKLTNSQTSLCEILQEKGRWAGVSLDQSALLPLRFKNIREKTDAHFVDVIKEDSLMKDYFFKPPISQFSLNFLDQELEQSYRASYQEEVIKNSPVKTFASATFSSLLDVFLSTTVFLILSITCFLKYGATATPPPPAALAVFGADLLLEVLSLIVSIRMVFFLEDVLTCTKRLLEWIAGWLPRHCIGAILVSLPALAVYSHITSEFETNINFTMLTGSAVLVAVVHYCNFCQLSSWMRSSLATLVGAGPLLLLYISLCQDSSIVMSPLDTAQNFSASERSPCNSSVLQDGRRPASLIGKELILTFFLLLLLVWFLNREFEVSYRLHYHGDVEADLHRTKIQSMRDQADWLLRNIIPYHVAEQLKVSQTYSKNHDSGGVIFASIVNFSEFYEENYEGGKECYRVLNELIGDFDELLSKPDYNSIEKIKTIGATYMAASGLNTAQCQEGGHPQEHLRILFEFAKEMMRVVDDFNNNMLWFNFKLRVGFNHGPLTAGVIGTTKLLYDIWGDTVNIASRMDTTGVECRIQVSEESYRVLSKMGYDFDYRGTVNVKGKGQMKTYLYPKCTDNGVVPQHQLSISPDIRVQVDGSIGRSPTDEITNLVPSVQYLDKASLGSDDGAQTKEATLSSKRPWREPVKAEERFRFGKAIEKEDCEDTGAEEANELTKLNVSKSV
With B3, in test [1], the binding entry is on record as “no binding”.
